No constants are given. Whether binding was seen depends on the method and setting. In cells and extracts the contact can be indirect. Binding calls can cover weak binding; strength is not graded here.
Target: Flag-tagged Leon (Drosophila) (UniProt Q9VZU7)
Experiment: co-IP; Drosophila adult head lysates of flies expressing Flag-Leon with GMR-Gal4, immunoprecipitated with anti-IgG or anti-Flag antibody, immunoblotted for endogenous Atg1

Chains of the proteins cited; added tags and fusions are not shown. Lines headed by an entry give the natural chain unless they say otherwise; changes in a name come on top.
UniProt Q9VU14: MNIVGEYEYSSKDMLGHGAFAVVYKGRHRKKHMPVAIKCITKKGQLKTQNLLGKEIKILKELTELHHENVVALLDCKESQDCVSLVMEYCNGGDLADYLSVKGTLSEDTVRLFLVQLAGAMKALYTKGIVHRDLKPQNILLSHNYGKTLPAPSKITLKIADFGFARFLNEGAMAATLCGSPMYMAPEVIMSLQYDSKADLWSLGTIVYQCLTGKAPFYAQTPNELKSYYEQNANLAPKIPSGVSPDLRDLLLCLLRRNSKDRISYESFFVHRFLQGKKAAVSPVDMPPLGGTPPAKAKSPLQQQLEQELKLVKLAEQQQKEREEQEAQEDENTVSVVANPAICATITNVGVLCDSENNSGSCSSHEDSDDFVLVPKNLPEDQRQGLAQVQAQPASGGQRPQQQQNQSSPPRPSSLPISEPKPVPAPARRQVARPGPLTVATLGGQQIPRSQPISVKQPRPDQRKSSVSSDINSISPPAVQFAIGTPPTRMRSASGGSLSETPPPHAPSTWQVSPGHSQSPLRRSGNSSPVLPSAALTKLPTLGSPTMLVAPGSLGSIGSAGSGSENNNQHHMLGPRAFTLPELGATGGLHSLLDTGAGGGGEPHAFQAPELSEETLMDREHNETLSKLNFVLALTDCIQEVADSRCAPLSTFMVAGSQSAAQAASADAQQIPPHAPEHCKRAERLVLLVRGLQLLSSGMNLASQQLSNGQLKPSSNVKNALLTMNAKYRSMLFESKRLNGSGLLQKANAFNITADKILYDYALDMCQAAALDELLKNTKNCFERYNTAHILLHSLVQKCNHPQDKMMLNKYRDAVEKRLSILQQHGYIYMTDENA

binding: binds
Substance: endogenous Atg1 (from UniProt Q9VU14) (enzyme)

Reference: PMC10444890
